{
  "source": "PubChem BioAssay AID504834",
  "about": "(National Center for Advancing Translational Sciences (NCATS), 2011)",
  "note": "Hit rate of the full screen: of about 320,000 compounds, about 22,000 (6.9%) were called active. The shares of active, inactive and inconclusive entries below differ from those in the screen. Calls follow the shape of the dose curve; as a rule, active = well fitted inhibition curve with a large enough effect; inconclusive = small, poorly fitted or top-dose-only effect, or another doubt; inactive = no such curve, though single readings can be large or run the other way. Potencies beside an inconclusive call are fits to weak or partial responses and may not hold up. % is scaled to controls: 0 for no effect and ±100 for the full control effect; potency is read from the fitted curve at half-maximal effect.",
  "data": [
    {"experiment": "Primary qHTS for delayed death inhibitors of the malarial parasite plastid, 96 hour incubation", "details": "P. falciparum luciferase reporter growth; series mostly up to 28.7 µM", "in_short": "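Delayed-death screen, second-generation endpoint: infected erythrocytes, 2% hematocrit, 0.05% parasitemia final; 96 hours at 37 C, 5% CO2; luciferase detection reagent; luminescence decrease equals reduced growth.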", "values": [
      {"smiles": "Cc1c(C(=O)N(C)CC(=O)Nc2cccc(F)c2)oc2c(Cl)cccc12", "Potency": "active: 1.47 µM"},
      {"smiles": "Cc1c(C(=O)N2CCN(c3ccc(F)cc3)CC2)sc2nc3n(c(=O)c12)CCC3", "Potency": "inconclusive: 11.7 µM [inhibitor, single point]"},
      {"smiles": "CCCn1nnnc1SCC(=O)c1ccc2c(c1)OCCO2", "Potency": "inactive"},
      {"smiles": "N#Cc1ccc(OCC(=O)Nc2cc(S(=O)(=O)N3CCCCC3)ccc2N2CCCCC2)cc1", "Potency": "inconclusive: 0.657 µM [inhibitor, full curve]"},
      {"smiles": "Cn1c(C(=O)NCC2CCCO2)cc2c(=O)n3ccccc3nc21", "note": "(stereo not drawn)", "Potency": "inconclusive: 0.0037 µM [inhibitor, full curve, poor fit]"},
      {"smiles": "CCOC(CNC(=O)c1ccc(N2CCc3ccccc32)c([N+](=O)[O-])c1)OCC", "Potency": "inconclusive: 0.738 µM [inhibitor, partial curve, poor fit]"},
      {"smiles": "Cc1[nH]c(C)c(S(=O)(=O)N(C)Cc2ccccc2)c1C(=O)N1CCCCC1", "Potency": "inconclusive: 18.5 µM [inhibitor, single point]"},
      {"smiles": "Cc1ccc(NC(=O)CSc2ccc(-c3ccc4c(c3)OCO4)nn2)cc1F", "Potency": "inconclusive: 4.15 µM [inhibitor, single point]"},
      {"smiles": "Cc1oc2c(CN3CCCC3)c(O)ccc2c(=O)c1-c1ccccc1", "Potency": "active: 11.7 µM"},
      {"smiles": "O=c1c(C=NCCN2CCNCC2)c(O)n(C2CCCCC2)c(=O)n1C1CCCCC1", "Potency": "inconclusive: 18.5 µM [inhibitor, single point]"},
      {"smiles": "O=S(=O)(/N=C(/c1ccccc1Cl)N1CCOCC1)c1ccccc1", "Potency": "inconclusive: 0.0329 µM [inhibitor, partial curve, poor fit]"},
      {"smiles": "COc1cccc(C(=O)Nc2ccc(C(=O)c3ccccc3)cc2)c1", "Potency": "inconclusive: 0.657 µM [inhibitor, full curve, poor fit]"},
      {"smiles": "S=C(NCCCN1CCOCC1)Nc1cccc(-c2nnc3n2CCCCC3)c1", "Potency": "inconclusive: 18.5 µM [inhibitor, single point]"},
      {"smiles": "CCCCOc1cccc(C2C(C(=O)c3ccc(C)o3)=C(O)C(=O)N2Cc2ccco2)c1", "note": "(stereo not drawn)", "Potency": "inconclusive: 20.8 µM [inhibitor, partial curve, poor fit]"},
      {"smiles": "CCOC(=O)c1nnn(-c2nonc2N)c1CN(CC)c1ccccc1", "Potency": "inconclusive: 18.5 µM [inhibitor, single point]"},
      {"smiles": "COc1ccc2cc(CO)n(C)c2c1", "Potency": "inconclusive: 14.7 µM [inhibitor, single point]"},
      {"smiles": "CCN(C(=O)CSc1nnc(Cn2nnc3ccccc32)o1)c1nc(-c2ccccc2)cs1", "Potency": "inactive"},
      {"smiles": "CN1CCN(C2=C(Cl)C(=O)N(CCc3ccccc3)C2=O)CC1", "Potency": "inactive"},
      {"smiles": "O=C(NCC1CCCO1)C1CCN(S(=O)(=O)c2ccccc2)CC1", "note": "(stereo not drawn)", "Potency": "inconclusive: 18.5 µM [inhibitor, single point]"},
      {"smiles": "Cc1cccc(NC(=O)Cn2nnc(C(=O)NCc3ccco3)c2N)c1", "Potency": "inconclusive: 0.208 µM [inhibitor, full curve, poor fit]"},
      {"smiles": "N#CCCN(C(=O)COc1ccc(F)cc1Br)c1ccccc1F", "Potency": "inconclusive: 0.0738 µM [inhibitor, full curve, poor fit]"},
      {"smiles": "O=C(O)Cn1cc(C(=O)c2ccco2)c2ccccc21", "Potency": "inactive"},
      {"smiles": "Oc1ccc(/C=N/Nc2ccc3ccccc3c2)c(O)c1", "Potency": "inconclusive: 0.0738 µM [inhibitor, full curve, poor fit]"},
      {"smiles": "N#Cc1ccccc1OCc1nnc(-c2ccccc2Br)o1", "Potency": "inactive"},
      {"smiles": "CN(C)c1ccc(/C=N/NC(=O)c2ccco2)cc1", "Potency": "inactive"},
      {"smiles": "COC(=O)C1=C(c2ccc(OC)c(OC)c2)C[C@@H]2CC[C@H]1N2C(=O)NCCOc1ccccc1", "Potency": "inconclusive: 13.1 µM [inhibitor, single point]"},
      {"smiles": "CNC(=O)c1ccc(CNC(=O)OCc2ccccc2)cc1", "activity change, negative = inhibition": "inactive: -39.2% [at 5.75 µM]"},
      {"smiles": "COC(=O)CNC(=O)COC(=O)/C=C/c1ccc(F)cc1", "Potency": "inactive"},
      {"smiles": "COc1ccc(Cn2nnnc2C(c2cc3cccc(C)c3[nH]c2=O)N2CCOCC2)cc1", "note": "(stereo not drawn)", "Potency": "inconclusive: 18.5 µM [inhibitor, single point]"},
      {"smiles": "Cc1cccc(C)c1NC(=O)c1cnn(-c2ccccc2)c1C", "Potency": "inconclusive: 18.5 µM [inhibitor, single point]"},
      {"smiles": "COc1ccc(NS(=O)(=O)c2cc3c(cc2C)N(C(C)=O)CCO3)cc1OC", "Potency": "inactive"},
      {"smiles": "Cn1c(SCC(=O)Nc2nccs2)nnc1C1CC1", "Potency": "inactive"},
      {"smiles": "Cc1cc(OCc2cc(C(=O)N(Cc3nccn3C)C(C)C)no2)cc(C)c1Cl", "Potency": "active: 14.7 µM"},
      {"smiles": "COc1cccc(C(=O)Nc2cc(S(=O)(=O)N3CCCCC3)ccc2OC)c1", "Potency": "inconclusive: 14.7 µM [inhibitor, partial curve, poor fit]"},
      {"smiles": "CC(C)(C)c1ccc(C(=O)Nc2ccc(Oc3cccnc3)nc2)cc1", "Potency": "inconclusive: 10.4 µM [inhibitor, partial curve]"},
      {"smiles": "Cc1ccc(S(=O)(=O)N2CCN(c3nn(C)c(=O)n(C)c3=O)CC2)cc1C", "Potency": "inconclusive: 8.28 µM [inhibitor, partial curve, poor fit]"},
      {"smiles": "O=C(c1ccc(Cl)cc1)C1CCN(C(=O)c2ccccc2)CC1", "Potency": "inconclusive: 20.8 µM [inhibitor, single point]"},
      {"smiles": "Cn1cc(Cl)c(C(=O)Nc2nccs2)n1", "Potency": "inconclusive: 14.7 µM [inhibitor, single point]"},
      {"smiles": "O=C(NC(=S)N1CCN(c2ccc(O)cc2)CC1)c1cccs1", "Potency": "inconclusive: 8.28 µM [inhibitor, partial curve, poor fit]"},
      {"smiles": "CCOC(=O)Cc1csc(NC(=O)C2C3C=CC(C3)C2C(=O)O)n1", "note": "(stereo not drawn)", "Potency": "inconclusive: 4.15 µM [inhibitor, partial curve, poor fit]"},
      {"smiles": "CCN(CC)C(=O)Cn1cc(S(=O)(=O)CC(=O)NCCc2ccc(OC)c(OC)c2)c2ccccc21", "Potency": "inconclusive: 0.0093 µM [inhibitor, full curve, poor fit]"},
      {"smiles": "CCOC(=O)C1CCCN(C(=O)/C=C/c2ccc([N+](=O)[O-])cc2)C1", "note": "(stereo not drawn)", "Potency": "inconclusive: 18.5 µM [inhibitor, single point]"},
      {"smiles": "Cc1cccc(CC(=O)Nc2cc(=O)n(C)c(=O)n2C)c1", "Potency": "inconclusive: 8.28 µM [inhibitor, partial curve]"},
      {"smiles": "COc1cccc(NC(=O)CN2C(=O)COc3ccc(Cl)cc32)c1", "Potency": "inconclusive: 18.5 µM [inhibitor, partial curve, poor fit]"},
      {"smiles": "COc1ccc(-n2cnnc2SCC(=O)Nc2cc(S(=O)(=O)N3CCCCC3)ccc2C)cc1", "Potency": "inconclusive: 18.5 µM [inhibitor, single point]"},
      {"smiles": "Cn1cnc([N+](=O)[O-])c1Oc1cccc(O)c1", "Potency": "inconclusive: 5.22 µM [inhibitor, partial curve]"},
      {"smiles": "N#Cc1ccccc1CSc1ccccn1", "Potency": "inactive"},
      {"smiles": "CN(C)C(CNC(=O)c1ccc(NS(=O)(=O)c2ccc3[nH]c(=O)[nH]c3c2)cc1)c1ccccc1", "note": "(stereo not drawn)", "Potency": "inactive"},
      {"smiles": "COc1ccc(NC(=O)c2ccc(-c3ccc(-c4noc(C)n4)cc3C)cc2)cc1N1CCN(C)CC1", "Potency": "active: 2.62 µM"},
      {"smiles": "O=c1c(Br)c(Br)cnn1-c1ccccc1", "Potency": "inactive"},
      {"smiles": "CCC(C)c1ccccc1NC(=O)COc1ccc(-c2nnco2)cc1", "note": "(stereo not drawn)", "Potency": "inactive"},
      {"smiles": "O=c1[nH]c(CN2CCN(c3ccccc3O)CC2)nc2ccccc12", "Potency": "inconclusive: 11.7 µM [inhibitor, single point]"},
      {"smiles": "O=C(COc1cccc(F)c1)N1c2ccccc2Sc2ccccc21", "Potency": "inconclusive: 10.4 µM [inhibitor, single point]"},
      {"smiles": "Cc1ccccc1NS(=O)(=O)c1cc(C(=O)NCc2ccncc2)ccc1Cl", "Potency": "inconclusive: 10.4 µM [inhibitor, single point]"},
      {"smiles": "COc1ccc(S(=O)(=O)N2CCCC2CNC(=O)C(=O)NCCc2ccccc2)cc1", "note": "(stereo not drawn)", "Potency": "inconclusive: 9.28 µM [inhibitor, single point]"},
      {"smiles": "CCc1cccc(C)c1NC(=O)CO/N=C(\\C)c1cc2ccccc2o1", "Potency": "inconclusive: 18.5 µM [inhibitor, single point]"},
      {"smiles": "CC(=O)N1CCc2cc(S(=O)(=O)NCc3ccc(C)cc3)ccc21", "Potency": "inconclusive: 13.1 µM [inhibitor, single point]"},
      {"smiles": "COc1cc(OC)c2cc(C(=O)N/N=C/c3ccccc3O)[nH]c2c1", "Potency": "active: 4.65 µM"},
      {"smiles": "O=C(CC1Oc2ccccc2NC1=O)NC1CCCC1", "note": "(stereo not drawn)", "Potency": "inactive"},
      {"smiles": "Cc1ccc2[nH]c3c(N4CCCCCC4)ncnc3c2c1", "Potency": "inconclusive: 11.7 µM [inhibitor, single point]"},
      {"smiles": "COc1ccccc1Oc1ccnc2cc(Cl)ccc12", "Potency": "inconclusive: 9.28 µM [inhibitor, single point]"},
      {"smiles": "Cc1cccc(NC(=O)Cc2c(F)cccc2Cl)n1", "Potency": "inconclusive: 7.38 µM [inhibitor, single point]"},
      {"smiles": "Brc1ccc(-c2c(-c3ccsc3)sc3ccccc23)cn1", "Potency": "inconclusive: 8.28 µM [inhibitor, partial curve]"},
      {"smiles": "Nc1c(Cl)cc(-c2csc(N3CCCC3c3nc4cc(Cl)c(Cl)cc4n3CCOCCO)n2)cc1Cl", "note": "(stereo not drawn)", "Potency": "inconclusive: 10.4 µM [inhibitor, single point]"},
      {"smiles": "Cc1ccc(-c2nc3ccccc3o2)cc1NC(=S)NC(=O)c1cccs1", "Potency": "inactive"},
      {"smiles": "COc1cnn(-c2ccccc2)c(=O)c1SCc1ccc(Cl)cc1Cl", "Potency": "inconclusive: 0.117 µM [inhibitor, full curve, poor fit]"},
      {"smiles": "O=C(Oc1cccc(NC(=O)c2cccs2)c1)c1cccc(S(=O)(=O)N2CCCC2)c1", "Potency": "inconclusive: 13.1 µM [inhibitor, partial curve, poor fit]"},
      {"smiles": "Cc1ccc(C)n1-c1sc2c(c1C(=O)O)CCCC2", "Potency": "inconclusive: 5.22 µM [inhibitor, single point]"}
    ]}
  ]
}
